In article PMC8704891, “Natural Benzo/Acetophenones as Leads for New Synthetic Acetophenone Hybrids Containing a 1,2,3-Triazole Ring as Potential Antifouling Agents” (Marine Drugs, 2021) one finds LC50/EC50 therapeutic ratio data, which are given here for 3 molecules.

In this series the test system is Mytilus galloprovincialis plantigrade larvae. Nature of the series: Mussel larvae anti-settlement bioassay. The class given is in vivo. How it is done:
Mussel (Mytilus galloprovincialis) plantigrades were collected in juvenile aggregates during low neap tides at Memória beach, Matosinhos, Portugal (41°13′59″ N; 8°43′28″ W). In the laboratory, mussel plantigrade larvae (0.5–2 mm) were isolated in a binocular magnifier (Olympus SZX2-ILLT, Tokyo, Japan) to a petri dish with filtered seawater, and those with functional foot and competent exploring behavior were selected to the bioassays. Compounds were screened at 50 µM in 24-well microplates with 4-well replicates per condition and 5 larvae per well, for 15 h, in the darkness at 18 ± 1 °C, according to the previously reported. All compounds that caused more than 60% of settlement inhibition (≤40% of settlement) in the screening bioassay were considered active and selected for the determination of the semi-maximum response concentration that inhibited 50% of the larval settlement (EC50), at compounds concentrations of 3.125, 6.25, 12.5, 25, 50, 100, and 200 μM.
Data from anti-settlement, antibacterial, and anti-microalgal bioassay were analyzed by one-way analysis of variance (ANOVA), followed by a multi-comparisons Dunnett’s test against negative control. For all of the bioassays, the half-maximum response concentration (EC50) values for each compound, when applicable, were calculated using probit regression analysis. Significance was considered at p < 0.01, and 95% lower and upper confidence limits (95% LCL; UCL). The software IBM SPSS Statistics 26 (Armonk, New York, NY, USA) was used for statistical analysis.

A value given as a limit tells only on which side of the number the result lay.

Turning to `COc1cc(C(C)=O)cc(OC)c1OCc1cn([C@H]2O[C@@H](CO)[C@H](O)[C@@H](O)[C@@H]2NC(C)=O)nn1` [Compound 9a, N-((2S,3S,4S,5R,6S)-2-(4-((4-Acetyl-2,6-dimethoxyphenoxy)methyl)-1H-1,2,3-triazol-1-yl)-4,5-dihydroxy-6-(hydroxymethyl)tetrahydro-2H-pyran-3-yl)acetamide], the LC50/EC50 therapeutic ratio is on record as more than 9.67.

Regarding `COc1cc(C(C)=O)cc(OC)c1OCc1cn(-c2ccc(Cl)cc2)nn1` [Compound 6a, 1-(4-((1-(4-Chlorophenyl)-1H-1,2,3-triazol-4-yl)methoxy)-3,5-dimethoxyphenyl)ethan-1-one], the LC50/EC50 therapeutic ratio was more than 6.93.

`COc1cc(C(C)=O)cc(OC)c1OCc1cn(CCCO)nn1` [Compound 7a, 1-(4-((1-(3-Hydroxypropyl)-1H-1,2,3-triazol-4-yl)methoxy)-3,5-dimethoxyphenyl)ethan-1-one]: the LC50/EC50 therapeutic ratio was more than 4.98.
